PubChem BioAssay AID1224828, NIAID | 2016
Screen: 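Knock-downs that increase or decrease LPS-induced p65 nuclear translocation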 (primary screen). Cells: mouse RAW264.7 G9 macrophage reporter cells (GFP-p65, Tnf promoter-mCherry). Reagents: siRNA pool against mouse genes, 100 nM. Time to read-out: 2 days siRNA transfection, then 40 min LPS before fixation. Challenge: LPS (Salmonella minnesota R595) at 10 ng/ml. Detection: 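Microscopy ratio of nuclear to perinuclear-ring GFP-p65 signal, scaled to the plate median; gene score is the average of two replicate robust z-scores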. Reading the numbers: p65 translocation robust z-score: higher = more nuclear NF-kappaB p65 after LPS than the plate median; nuclear/cytoplasmic p65 ratio: higher = more nuclear NF-kappaB p65. Call rule: 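Called active when z exceeds 3.3 or falls under -1.56 (median of Tlr4 controls), giving activity score of at least 50; no calls for control wells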. Meaning of the calls: active = hit (p65 shift raised or lowered); inactive = no clear change.
Shown is a random part of about 17,000 reagents. Over the whole deposit, 762 (4.5%) are marked active. 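Active calls include both raised and lowered p65 entry, mostly lowered; wells with fewer than 50 cells lack a z-score.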 Raw values are not corrected between plates. Some reagents were tested in more than one well and are listed for each.

| gene knocked down | p65 translocation robust z-score | nuclear/cytoplasmic p65 ratio, rep 1 | nuclear/cytoplasmic p65 ratio, rep 2 | low cell count flag | Call |
| --- | --- | --- | --- | --- | --- |
| Adrb3 (adrenergic receptor, beta 3) | 0.77 | 1.64 | 1.67 | enough cells to score | inactive |
| Pdk3 (pyruvate dehydrogenase kinase, isoenzyme 3) | -1.39 | 1.46 | 1.21 | enough cells to score | inactive |
| Rgs20 (regulator of G-protein signaling 20) | 0.42 | 1.62 | 1.59 | enough cells to score | inactive |
| Gpr180 (G protein-coupled receptor 180) | 1.15 | 1.73 | 1.44 | enough cells to score | inactive |
| Pias2 (protein inhibitor of activated STAT 2) | 1.15 | 1.49 | 1.58 | enough cells to score | inactive |
| Rbbp8 (retinoblastoma binding protein 8, endonuclease) | -0.64 | 1.51 | 1.53 | enough cells to score | inactive |
| Dnah8 (dynein, axonemal, heavy chain 8) | 1.51 | 1.72 | 1.5 | enough cells to score | inactive |
| Pprc1 | -0.64 | 1.46 | 1.28 | enough cells to score | inactive |
| Lrrc8a (leucine rich repeat containing 8A VRAC subunit A) | -1.7 | 1.49 | 1.26 | enough cells to score | active |
| Adam10 (a disintegrin and metallopeptidase domain 10) | 0.02 | 1.6 | 1.64 | enough cells to score | inactive |
| Rrh (retinal pigment epithelium derived rhodopsin homolog) | -0.13 | 1.46 | 1.6 | enough cells to score | inactive |
| Serpinb9b (serine (or cysteine) peptidase inhibitor, clade B, member 9b) | – | 1.26 | 1.22 | fewer than 50 cells per well; well left out of scoring | inactive |
| Sh3rf2 (SH3 domain containing ring finger 2) | -0.1 | 1.34 | 1.29 | enough cells to score | inactive |
| Cirsr (corepressor of RBPJ and splicing regulator) | 0.09 | 1.39 | 1.43 | enough cells to score | inactive |
| Brd8dc (BRD8 domain containing) | 0.07 | 1.31 | 1.28 | enough cells to score | inactive |
| Gmcl1 (germ cell-less, spermatogenesis associated 1) | -0.92 | 1.38 | 1.41 | enough cells to score | inactive |
| Ppp1r3c (protein phosphatase 1, regulatory subunit 3C) | 1.01 | 1.67 | 1.51 | enough cells to score | inactive |
| Paqr6 (progestin and adipoQ receptor family member VI) | 0.87 | 1.59 | 1.63 | enough cells to score | inactive |
| Kiss1 (KiSS-1 metastasis-suppressor) | -0.53 | 1.42 | 1.3 | enough cells to score | inactive |
| Hsdl1 (hydroxysteroid dehydrogenase like 1) | 0.41 | 1.4 | 1.52 | enough cells to score | inactive |
| Mrps35 (mitochondrial ribosomal protein S35) | -1.14 | 1.66 | 1.37 | enough cells to score | inactive |
| C5ar1 (complement component 5a receptor 1) | – | 1.16 | 1.38 | fewer than 50 cells per well; well left out of scoring | inactive |
| Or7d10 (olfactory receptor family 7 subfamily D member 10) | – | 1.34 | 1.05 | fewer than 50 cells per well; well left out of scoring | inactive |
| Or7g28 (olfactory receptor family 7 subfamily G member 28) | – | 1.24 | 1.35 | fewer than 50 cells per well; well left out of scoring | inactive |
| Samt4 (spermatogenesis associated multipass transmembrane protein 4) | 1.74 | 1.44 | 1.54 | enough cells to score | inactive |
| Aldh3b1 (aldehyde dehydrogenase 3 family, member B1) | -0.66 | 1.51 | 1.53 | enough cells to score | inactive |
| Ip6k1 (inositol hexaphosphate kinase 1) | -1.52 | 1.57 | 1.18 | enough cells to score | inactive |
| Drd4 (dopamine receptor D4) | -0.29 | 1.43 | 1.35 | enough cells to score | inactive |
| Eif4g3 (eukaryotic translation initiation factor 4 gamma, 3) | – | 1.09 | 1.11 | fewer than 50 cells per well; well left out of scoring | inactive |
| Wdr76 (WD repeat domain 76) | -0.08 | 1.58 | 1.62 | enough cells to score | inactive |
| Brd10 (bromodomain containing 10) | 1.72 | 1.68 | 1.76 | enough cells to score | inactive |
| Cbfa2t2 (CBFA2/RUNX1 translocation partner 2) | -1.04 | 1.3 | 1.27 | enough cells to score | inactive |
| Exoc2 (exocyst complex component 2) | 1.71 | 1.63 | 1.45 | enough cells to score | inactive |
| Gemin8 (gem nuclear organelle associated protein 8) | 0.51 | 1.67 | 1.91 | enough cells to score | inactive |
| Cdv3 | -1.06 | 1.48 | 1.56 | enough cells to score | inactive |
| 9230106D20Rik (retired record) | – | 1.4 | 1.63 | fewer than 50 cells per well; well left out of scoring | inactive |
| Ehf (ets homologous factor) | -1.07 | 1.3 | 1.25 | enough cells to score | inactive |
| 4933405O20Rik (RIKEN cDNA 4933405O20 gene) | -0.03 | 1.26 | 1.12 | enough cells to score | inactive |
| Cand2 (cullin associated and neddylation dissociated 2 (putative)) | – | 1.42 | 1.09 | fewer than 50 cells per well; well left out of scoring | inactive |
| Ndufb8 (NADH:ubiquinone oxidoreductase subunit B8) | -0.13 | 1.74 | 1.59 | enough cells to score | inactive |
| Tnip2 (TNFAIP3 interacting protein 2) | 1.74 | 2.15 | 1.38 | enough cells to score | inactive |
| Defb9 (defensin beta 9) | -0.67 | 1.5 | 1.43 | enough cells to score | inactive |
| Rab3gap1 (RAB3 GTPase activating protein subunit 1) | – | 1.44 | 1.3 | fewer than 50 cells per well; well left out of scoring | inactive |
| Rps21 (ribosomal protein S21) | 0.25 | 1.58 | 1.52 | enough cells to score | inactive |
| Slc24a1 | 0.01 | 1.41 | 1.25 | enough cells to score | inactive |
| Ttc39c (tetratricopeptide repeat domain 39C) | – | 1.36 | 1.26 | fewer than 50 cells per well; well left out of scoring | inactive |
| Clcn4 (chloride channel, voltage-sensitive 4) | 1.62 | 1.8 | 2.09 | enough cells to score | inactive |
| Rtl3 (retrotransposon Gag like 3) | – | 1.48 | 1.66 | fewer than 50 cells per well; well left out of scoring | inactive |
| Serpind1 (serine (or cysteine) peptidase inhibitor, clade D, member 1) | -1.36 | 1.38 | 1.33 | enough cells to score | inactive |
| Or12e1 (olfactory receptor family 12 subfamily E member 1) | 1.39 | 1.8 | 1.7 | enough cells to score | inactive |
| Foxb1 (forkhead box B1) | -0.63 | 1.35 | 1.3 | enough cells to score | inactive |
| Terb1 (telomere repeat binding bouquet formation protein 1) | 0.86 | 1.42 | 1.35 | enough cells to score | inactive |
| Stk36 (serine/threonine kinase 36) | -0.17 | 1.64 | 1.38 | enough cells to score | inactive |
| Stk36 (serine/threonine kinase 36) | -1.07 | 1.25 | 1.34 | enough cells to score | inactive |
| Med21 (mediator complex subunit 21) | – | 1.31 | 1.36 | fewer than 50 cells per well; well left out of scoring | inactive |
| Slc4a1 | 0.49 | 1.59 | 1.59 | enough cells to score | inactive |
| Sirt2 (sirtuin 2) | 1.18 | 1.65 | 1.79 | enough cells to score | inactive |
| Epb41l2 (erythrocyte membrane protein band 4.1 like 2) | -0.3 | 1.61 | 1.37 | enough cells to score | inactive |
| Praf2 (PRA1 domain family 2) | – | 1.48 | 1.31 | fewer than 50 cells per well; well left out of scoring | inactive |
| Crlf1 (cytokine receptor-like factor 1) | 0.71 | 1.69 | 1.36 | enough cells to score | inactive |
| Klk1b24 (kallikrein 1-related peptidase b24) | -0.57 | 1.41 | 1.41 | enough cells to score | inactive |
| Tuba3b (tubulin, alpha 3B) | -1.32 | 1.39 | 1.26 | enough cells to score | inactive |
| Hapln3 (hyaluronan and proteoglycan link protein 3) | -0.67 | 1.29 | 1.46 | enough cells to score | inactive |
| Pik3ap1 (phosphoinositide-3-kinase adaptor protein 1) | 0.06 | 1.47 | 1.45 | enough cells to score | inactive |
| Uba7 (ubiquitin-like modifier activating enzyme 7) | -0.04 | 1.53 | 1.48 | enough cells to score | inactive |
| Preb (prolactin regulatory element binding) | -0.06 | 1.47 | 1.42 | enough cells to score | inactive |
| Kars1 (lysyl-tRNA synthetase 1) | 1.36 | 1.85 | 1.52 | enough cells to score | inactive |
| Col5a3 (collagen, type V, alpha 3) | -0.87 | 1.39 | 1.23 | enough cells to score | inactive |
| Accs (1-aminocyclopropane-1-carboxylate synthase (inactive)) | – | 1.44 | 1.79 | fewer than 50 cells per well; well left out of scoring | inactive |
| Tal1 (T cell acute lymphocytic leukemia 1) | -0.48 | 1.46 | 1.44 | enough cells to score | inactive |
| Htr6 (5-hydroxytryptamine (serotonin) receptor 6) | 0.68 | 1.56 | 1.73 | enough cells to score | inactive |
| Ddx1 (DEAD box helicase 1) | 0.1 | 1.59 | 1.59 | enough cells to score | inactive |
| Fcrla (Fc receptor-like A) | -0.11 | 1.57 | 1.63 | enough cells to score | inactive |
| Sall3 (spalt like transcription factor 3) | -0.82 | 1.41 | 1.4 | enough cells to score | inactive |
| Psme2b (protease (prosome, macropain) activator subunit 2B) | – | 1.43 | 1.21 | fewer than 50 cells per well; well left out of scoring | inactive |
